Library screening results

Chains of the proteins cited; added tags and fusions are not shown.
UniProt E9BF75, entry or part of it: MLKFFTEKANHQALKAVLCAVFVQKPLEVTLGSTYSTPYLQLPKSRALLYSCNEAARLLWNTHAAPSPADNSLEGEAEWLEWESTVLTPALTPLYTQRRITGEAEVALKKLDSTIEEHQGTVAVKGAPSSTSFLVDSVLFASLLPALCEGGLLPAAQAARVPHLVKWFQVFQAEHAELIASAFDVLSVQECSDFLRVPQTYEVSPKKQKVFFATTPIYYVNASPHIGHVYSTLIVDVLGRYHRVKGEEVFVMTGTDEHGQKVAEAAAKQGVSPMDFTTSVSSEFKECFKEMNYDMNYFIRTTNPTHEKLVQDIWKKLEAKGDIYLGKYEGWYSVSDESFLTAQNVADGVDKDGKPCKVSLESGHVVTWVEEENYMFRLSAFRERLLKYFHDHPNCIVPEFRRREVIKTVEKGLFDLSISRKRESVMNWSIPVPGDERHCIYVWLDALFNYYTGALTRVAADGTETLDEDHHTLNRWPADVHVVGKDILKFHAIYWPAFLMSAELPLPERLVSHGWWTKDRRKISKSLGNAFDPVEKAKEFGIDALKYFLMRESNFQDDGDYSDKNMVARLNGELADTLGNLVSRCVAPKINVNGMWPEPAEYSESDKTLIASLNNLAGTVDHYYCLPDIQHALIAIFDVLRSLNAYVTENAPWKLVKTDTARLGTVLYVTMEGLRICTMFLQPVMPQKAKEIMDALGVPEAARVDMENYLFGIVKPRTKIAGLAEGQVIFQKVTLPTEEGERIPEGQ

All values are in %. How 0% and 100% were set is not recorded. Most values in the screen are low, and negative values occur. Compounds were drawn at random from those tested, without regard to their results.

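Methionyl-tRNA synthetase (putative), Leishmania donovani (UniProt E9BF75). Primary screen of methionyl-tRNA synthetase; the read-out is not stated. The test concentration is not given. The values are filed as inhibition. Size under these conditions: about 68,000 compounds, about 24 of them at 50% or above in at least one test.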

{"smiles": "COc1ccc(CNC(=O)c2nn(C)c3c2CS(=O)(=O)CC3)cc1", "Inhibition": -9.799}
{"smiles": "c1cncc(OCc2noc3c2CN(Cc2ccoc2)CC3)c1", "Inhibition": 10.37}
{"smiles": "Cc1n[nH]c(C)c1-c1cc(-c2cccc(O)c2)nc(N)c1C#N", "Inhibition": 19.35}
{"smiles": "c1ccc(Cc2nnc(CN3CCn4c(nnc4C4CC4)C3)o2)cc1", "Inhibition": 20.52}
{"smiles": "Cc1ccc(NC(=O)NCCCc2n[nH]c(N)c2C#N)cc1", "Inhibition": 10.8}
{"smiles": "CCc1nn(C)c(Cl)c1CN1C[C@H](NC(=O)CCO)[C@@H](C(C)C)C1", "Inhibition": 6.41}
{"smiles": "COCc1cc(CNC(=O)c2cc(NC(C)=O)ccc2Cl)n[nH]1", "Inhibition": 9.48}
{"smiles": "CN1CC=C(c2noc(CCC(=O)N3CCCC3)n2)CC1", "Inhibition": 4.665}
{"smiles": "Cc1ccc(N2CCOC(C)(C(=O)N(C)C)C2)nn1", "stereo": "stereo not given", "Inhibition": 9.494}
{"smiles": "Cc1ocnc1C(=O)N1CCC2(CC1)c1nc[nH]c1CCN2CC(C)C", "Inhibition": 9.971}
{"smiles": "NC(=O)c1cc(C2CCCN(CCOc3cccc(F)c3)C2)n[nH]1", "stereo": "stereo not given", "Inhibition": 14.21}
{"smiles": "c1csc(CNCC2COCc3c(-c4ccoc4)nnn3C2)n1", "stereo": "stereo not given", "Inhibition": 16.25}
{"smiles": "Clc1ccccc1-c1cc(CNc2ncnc3c2CCNCC3)no1", "Inhibition": 16.52}
{"smiles": "O=C1COC2(CCN(c3ncccn3)CC2)CN1Cc1ccccn1", "Inhibition": 6.875}
{"smiles": "CCOC(=O)N1CCC(NCC2CCN(c3cnn(C)c(=O)c3)C2)CC1", "stereo": "stereo not given", "Inhibition": 6.87}
{"smiles": "CN1CCCC1CCn1ccnc1-c1ccc2ccccc2n1", "stereo": "stereo not given", "Inhibition": 17.38}
{"smiles": "O=C(NCCCn1cccn1)N1CCCC1c1cccs1", "stereo": "stereo not given", "Inhibition": 15.92}
{"smiles": "Cc1ccc(Oc2nccnc2C2CCN(C(=O)C(C)(C)N)CC2)cc1", "Inhibition": 9.176}
{"smiles": "COCc1nccc(C2CCCN(Cc3cccc(C#N)c3)C2)n1", "stereo": "stereo not given", "Inhibition": 4.749}
{"smiles": "Cn1ccnc1CN(CCO)C(=O)c1cc2ccccc2o1", "Inhibition": 10.13}
{"smiles": "Cc1ccc(C)c(S(=O)(=O)NC(=O)c2ccc(C)[nH]c2=O)c1", "Inhibition": 15.64}
{"smiles": "CN(C)CC(=O)N1CCCC1c1cncc(Oc2ccc(F)cc2)n1", "stereo": "stereo not given", "Inhibition": 5.65}
{"smiles": "O=C1COc2cc(C(=O)NS(=O)(=O)c3cc(Cl)ccc3Cl)ccc2N1", "Inhibition": 12.57}
{"smiles": "NC(=O)c1cn(CC2CCC2)c(C2CC2)n1", "Inhibition": 12.59}
{"smiles": "CN1Cc2nnc(C3CCOCC3)n2C(Cc2c[nH]cn2)C1", "stereo": "stereo not given", "Inhibition": 14.25}
{"smiles": "Cc1nc(NCCN2CCCC2=O)cc(C2CN(C)CCO2)n1", "stereo": "stereo not given", "Inhibition": 1.572}
{"smiles": "CCn1nc2c(cc1=O)CN(Cc1nc(C)c(C)o1)CC2", "Inhibition": 10.86}
{"smiles": "COc1cccc(SCC(=O)N2CCC(N3CCCC(O)C3)CC2)c1", "stereo": "stereo not given", "Inhibition": 11.81}
{"smiles": "CC(C)CCN1C(=O)CC(N(C)Cc2nc3ccccc3c(=O)[nH]2)C1=O", "stereo": "stereo not given", "Inhibition": 9.192}
{"smiles": "CC1CCN(S(=O)(=O)NCCCn2cncn2)CC1", "Inhibition": 19.44}
{"smiles": "NC(=O)NC(=O)CCN1CCCN(c2nccs2)CC1", "Inhibition": 13.29}
{"smiles": "COc1ccc2c(ccn2CCC(=O)/N=c2\\[nH]nc(C3CCCO3)s2)c1", "stereo": "stereo not given", "Inhibition": 13.87}
{"smiles": "CCN(CC)C(=O)Cn1cc(-c2nc(-c3ccccc3C)no2)nn1", "Inhibition": 13.56}
{"smiles": "CCC(C)CNCC1(S(C)(=O)=O)CCOCC1", "stereo": "stereo not given", "Inhibition": 1.902}
{"smiles": "COc1cccc(CCC2CCCN(C(C)=O)C2)c1", "stereo": "stereo not given", "Inhibition": 19.88}
{"smiles": "Cc1ccc(CNC(=O)COc2ccc3c(c2)OCC3O)cc1", "stereo": "stereo not given", "Inhibition": 14.92}
{"smiles": "Cc1noc(CNC(=O)NCC2(C)CCCc3ccccc32)n1", "stereo": "stereo not given", "Inhibition": 6.469}
{"smiles": "Cc1ccc(C(=O)N2CCCC(C(=O)N3CCCCC3)C2)c(O)c1", "stereo": "stereo not given", "Inhibition": 1.961}
{"smiles": "CC(c1nc(C(C)(C)C)no1)N1CCN(C(=O)CN2CCOCC2)CC1", "stereo": "stereo not given", "Inhibition": 13.52}

For reference, 5 entries once more:

| SMILES | Inhibition |
|---|---|
| `Cc1n[nH]c(C)c1-c1cc(-c2cccc(O)c2)nc(N)c1C#N` | 19.35% |
| `Cc1ccc(C)c(S(=O)(=O)NC(=O)c2ccc(C)[nH]c2=O)c1` | 15.64% |
| `Cc1ccc(CNC(=O)COc2ccc3c(c2)OCC3O)cc1` (stereo not given) | 14.92% |
| `COc1ccc2c(ccn2CCC(=O)/N=c2\[nH]nc(C3CCCO3)s2)c1` (stereo not given) | 13.87% |
| `CC1CCN(S(=O)(=O)NCCCn2cncn2)CC1` | 19.44% |

Data taken from ChEMBL document CHEMBL3988442, “University of Dundee, Small-Polar-MMV Screening Library” (2021).